PubChem BioAssay AID686938 | Drosophila RNAi Screening Center – 2013
Assay: 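Looking for CRAC channel components and the factors controlling them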 (primary screen). System: Drosophila S2R+ cells. Knock-down reagent: long dsRNA against Drosophila genes, about 0.25 µg dsRNA per well, roughly 10,000 cells. Time to read-out: 5 days of knock-down before the calcium assay. Challenge: thapsigargin (SERCA pump blocker) to empty calcium stores; entry signal taken 4 min after adding it. Measured: 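Per-well fluo-4 fluorescence in two replicates, unnormalised, measured in resting cells and 4 min after store depletion by the SERCA blocker thapsigargin; ratio of the two present in few wells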. Reading the numbers: calcium entry signal: higher = stronger calcium signal after store depletion; entry to resting ratio: higher = more calcium entry relative to resting level; resting calcium signal: higher = higher resting calcium signal. Hit rule: 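Called when the plate z-score of the entry-to-rest ratio, mean of duplicates, falls below −3; wells with low overall dye signal (Fmax z below −2) or more than five off-targets excluded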. Meaning of the calls: active = strongly reduced calcium entry; inactive = no strong reduction.
The screen tested about 23,000 reagents; this is a random part of those that have a named target and a result. Of all reagents, 75 (0.33%) were called active. 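Raw plate signals without normalisation; calls rest on plate z-scores that were not deposited; ratio present for only 364 wells.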 The numbers tell different reagents against one gene apart. Names joined by + are all predicted targets of the reagent. Not stated in the record: the dose of the treatment.

target gene | dsRNA no. | calcium entry signal, replicate 1 (fluorescence units) | calcium entry signal, replicate 2 (fluorescence units) | entry to resting ratio | resting calcium signal, replicate 1 (fluorescence units) | resting calcium signal, replicate 2 (fluorescence units) | Call
unc79 (GeneID 42310) | 1 | 3.51e7 | 2.98e7 | – | 1.70e7 | 1.39e7 | inactive
Smvt (GeneID 43744) | 1 | 2.60e7 | 3.95e7 | 1.9 | 1.37e7 | 1.68e7 | inactive
Mtk (GeneID 36708) | 1 | 3.36e7 | 3.49e7 | – | 1.75e7 | 1.68e7 | inactive
Cog7 (GeneID 43547) | 1 | 3.29e7 | 5.58e7 | – | 1.73e7 | 2.21e7 | inactive
Uch (GeneID 33397) | 1 | 3.64e7 | – | – | 1.90e7 | – | inactive
Dlip1 (GeneID 53580) | 1 | 2.04e7 | 2.55e7 | – | 1.12e7 | 1.27e7 | inactive
CG8560 (GeneID 38830) | 1 | 5.46e7 | 4.02e7 | – | 3.48e7 | 1.69e7 | inactive
Strump (GeneID 39766) | 1 | 3.32e7 | 4.75e7 | – | 1.67e7 | 1.88e7 | inactive
Mdh2 (GeneID 42185) | 1 | 3.34e7 | 3.78e7 | – | 4.89e7 | 1.60e7 | inactive

Sorted by “calcium entry signal, replicate 2 (fluorescence units)” (ascending): 2 of the entries above.
target gene | dsRNA no. | calcium entry signal, replicate 1 (fluorescence units) | calcium entry signal, replicate 2 (fluorescence units) | entry to resting ratio | resting calcium signal, replicate 1 (fluorescence units) | resting calcium signal, replicate 2 (fluorescence units) | Call
unc79 (GeneID 42310) | 1 | 3.51e7 | 2.98e7 | – | 1.70e7 | 1.39e7 | inactive
Smvt (GeneID 43744) | 1 | 2.60e7 | 3.95e7 | 1.9 | 1.37e7 | 1.68e7 | inactive

The list goes on:
target gene | dsRNA no. | calcium entry signal, replicate 1 (fluorescence units) | calcium entry signal, replicate 2 (fluorescence units) | entry to resting ratio | resting calcium signal, replicate 1 (fluorescence units) | resting calcium signal, replicate 2 (fluorescence units) | Call
Traf-like (GeneID 32611) | 1 | 3.86e7 | 4.32e7 | – | 1.82e7 | 1.96e7 | inactive
CG15011 (GeneID 38518) | 1 | 6.45e7 | 3.66e7 | – | 4.12e7 | 1.58e7 | inactive
CG10459 (GeneID 36000) | 1 | 4.26e7 | 3.49e7 | – | 1.98e7 | 1.57e7 | inactive
CG10459 (GeneID 36000) | 2 | 3.62e7 | 3.80e7 | – | 1.70e7 | 2.16e7 | inactive
Tsp42Ef (GeneID 35615) | 1 | 4.28e7 | 3.97e7 | – | 1.85e7 | 1.70e7 | inactive
hbt + CG43779 | 1 | 2.98e7 | 1.94e7 | – | 1.48e7 | 9.52e6 | inactive
hbt + CG43779 | 2 | 5.21e7 | 3.67e7 | – | 2.62e7 | 1.54e7 | inactive
Argk1 (GeneID 39041) | 1 | 3.96e7 | 4.14e7 | – | 2.18e7 | 2.04e7 | inactive
Argk1 (GeneID 39041) | 2 | 3.51e7 | 3.76e7 | – | 1.92e7 | 1.55e7 | inactive
Argk1 (GeneID 39041) | 3 | 4.08e7 | 2.81e7 | – | 2.75e7 | 1.32e7 | inactive
Argk1 (GeneID 39041) | 4 | 3.75e7 | 3.44e7 | – | 2.30e7 | 1.73e7 | inactive
Argk1 (GeneID 39041) | 5 | 2.41e7 | 2.62e7 | – | 1.29e7 | 1.12e7 | inactive
Ir52b (GeneID 246631) | 1 | 3.62e7 | 3.89e7 | – | 2.04e7 | 1.72e7 | inactive
CG4069 (GeneID 39437) | 1 | 5.43e7 | 4.72e7 | – | 3.53e7 | 1.86e7 | inactive
Kr-h1 (GeneID 33861) | 1 | 3.62e7 | 3.76e7 | – | 2.05e7 | 1.93e7 | inactive
Kr-h1 (GeneID 33861) | 2 | 3.66e7 | – | – | 2.60e7 | – | inactive
